Like-named read-outs stand apart in the source and are kept apart here. These are yes or no findings as the source states them, for the method shown. Binding can be weak; no strength is given. For part of these data: Binding seen in cells or lysates may run through a third protein.
Assays:
Assay in all cases: pull-down
[1] = molecular target: His-OsSRT1 (FL), full length rice sirtuin OsSRT1 (Oryza sativa indica) (UniProt B8ARK7)
[2] = molecular target: OsSRT1 C terminus with CC region (ΔN1: 45-483) (Oryza sativa indica) (UniProt B8ARK7)
[3] = molecular target: OsSRT1 N-terminus alone (ΔC2: 1-45) (Oryza sativa indica) (UniProt B8ARK7)
[4] = molecular target: OsSRT1 catalytic core region (CC: 45-255) (Oryza sativa indica) (UniProt B8ARK7)
[5] = molecular target: His-OsSRT1 (FL), full length rice sirtuin OsSRT1 (Oryza sativa indica) (UniProt B8ARK7); remark: listed apart in the source

By UniProt entry, the sequences of proteins in these tests, tags left out. Where a name states a change or a piece, a line headed by the entry shows the natural chain unless it says otherwise.
UniProt B8ARK7: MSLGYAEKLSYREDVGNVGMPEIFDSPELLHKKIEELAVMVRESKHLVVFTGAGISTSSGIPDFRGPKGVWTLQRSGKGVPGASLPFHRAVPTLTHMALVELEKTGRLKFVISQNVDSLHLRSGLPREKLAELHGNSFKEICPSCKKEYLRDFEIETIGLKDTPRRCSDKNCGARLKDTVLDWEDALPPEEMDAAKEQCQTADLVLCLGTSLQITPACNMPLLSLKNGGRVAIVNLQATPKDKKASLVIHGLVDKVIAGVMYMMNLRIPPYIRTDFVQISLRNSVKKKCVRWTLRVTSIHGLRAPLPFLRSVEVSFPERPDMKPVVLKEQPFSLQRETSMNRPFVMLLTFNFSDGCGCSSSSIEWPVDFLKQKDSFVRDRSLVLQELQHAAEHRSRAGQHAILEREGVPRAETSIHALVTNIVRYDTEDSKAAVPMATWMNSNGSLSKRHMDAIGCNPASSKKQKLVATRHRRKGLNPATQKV
UniProt P09874: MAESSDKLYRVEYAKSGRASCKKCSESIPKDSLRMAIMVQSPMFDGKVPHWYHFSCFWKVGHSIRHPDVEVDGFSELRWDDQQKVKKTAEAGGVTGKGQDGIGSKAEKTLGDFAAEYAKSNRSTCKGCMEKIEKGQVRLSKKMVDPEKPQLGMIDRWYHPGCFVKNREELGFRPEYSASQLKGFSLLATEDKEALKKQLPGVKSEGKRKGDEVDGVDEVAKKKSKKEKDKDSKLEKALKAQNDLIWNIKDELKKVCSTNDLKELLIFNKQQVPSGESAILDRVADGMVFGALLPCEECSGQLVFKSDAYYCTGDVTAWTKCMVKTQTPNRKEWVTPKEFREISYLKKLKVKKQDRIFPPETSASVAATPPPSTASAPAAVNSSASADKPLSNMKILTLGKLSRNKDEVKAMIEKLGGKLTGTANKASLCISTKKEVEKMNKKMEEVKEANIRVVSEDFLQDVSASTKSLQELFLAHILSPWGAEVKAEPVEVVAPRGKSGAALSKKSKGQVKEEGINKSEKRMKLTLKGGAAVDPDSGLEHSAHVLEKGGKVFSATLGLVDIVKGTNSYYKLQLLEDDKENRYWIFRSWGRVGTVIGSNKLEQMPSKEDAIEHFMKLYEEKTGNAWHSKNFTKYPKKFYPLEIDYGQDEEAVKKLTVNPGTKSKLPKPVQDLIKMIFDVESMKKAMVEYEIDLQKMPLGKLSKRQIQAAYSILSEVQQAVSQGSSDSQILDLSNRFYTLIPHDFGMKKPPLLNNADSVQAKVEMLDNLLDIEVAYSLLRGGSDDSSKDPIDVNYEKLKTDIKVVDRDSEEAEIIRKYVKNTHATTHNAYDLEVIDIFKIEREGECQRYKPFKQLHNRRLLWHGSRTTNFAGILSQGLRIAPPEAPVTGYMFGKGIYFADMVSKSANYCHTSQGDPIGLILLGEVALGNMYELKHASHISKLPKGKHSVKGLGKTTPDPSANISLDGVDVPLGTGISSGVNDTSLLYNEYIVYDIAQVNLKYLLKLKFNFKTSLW

Molecule	binding [1]	binding [2]	binding [3]	binding [4]	binding [5]
recombinant PARP1 (rPARP1, ab123834) (from UniProt P09874 1-1014) (enzyme)	binds	binds	binds weakly	binds	–
Ku70 from nuclear extract of rice leaves (protein, UniProt Q7F1M0 1-624) MDLDPEGLFRDDSDEDDDNVQEREANKEMVVYLIDASPKMFTPATKADEKEETHFHTIVNCITHALKTQIIGRSYDEVAICFFNTKEKKNLQELAGVYVYNVTEREPLDRPDARLIKEFSCIEDSFMSNIGSRYGITSGSRENTLYNALWVAQALLRKGSVKTVSKRIVIFTNEDDPFGGLTGAVKTDMIRTTIQRARDAQDLGLSIELLPLSRPDEEFNMSLFYADLIGLEGDEIVDYLPSSGEKLEDMTNQLKKRMMKKRKVKTLAFAITNDVCIEVNTYALIRSTTPGAITWLDSISNLPLKAERSFICNDTGALIQDPQKRFQVYNDKIVKFSTRELSDVKRVSSHHLRLLGFKPLDYLKDYHNLRPSTFIYPSDEQIFGSTRVFVALHSSMRRLGRFALAFYGNPTRPQLVALIAQEEVTSAGGQIEPPGIHMIYLPYSDDVRYPEEVHLTSDDAPRATDEQIKKASNLLRRIDLKNFSVCQFSNPALQRHYGILEALALGEDEMPDVKDETLPDEEGLARPVVVKAVEEFKASVYGENYDQEEAEAAAAKAGASKKRKALTDAAAEKSAAHNWAELADTGKLKDMTVVDLKSYLSAHGLPVSGKKEALVSRILTHLGK	–	–	–	–	binds
Ku80 from nuclear extract of rice leaves (protein, UniProt Q75IP6 1-688) MARNKEALVLLLDVGPSMHGVLQEVENICSTLVHKKLVYNRSDEIGVVLFGTKETSNELAKELGGYKHVVVARDIKVVDEETTNALQNLPRGTSPGDFLDAIVVGLDMLIRKFGNIKGKQRMCLVTDAQHPLRDPPQGTKKDQVDTIADQMKRHEIKMDCIIFRESGVRHNAVMDENDQLLYHFRERSVTKVVHVDSPTSLLGALRTRNVLPVTVFRGDLEVSSSFKIKVWVYKKTSEEKFPTLKKYSDKAPASDKFASHEVKVDYEYKSVLEPDTVVPPDQRIKGYLYGPQVVPISSAEWEAVKFKPEKGVKLLGFTDRSSISRHYFMKDVFSFVPEPGNTKAVAAVSALARAMSEMNKVAILRCVWRQGQGNVALGVLTPNISSAKNVLDSFYFNILPFAEDIREFQFRSFSSLPSSSQPTKEQQEAADNLVKMLDLAPPGREEILKPDFTPNPMLERFYRYLDLKSKQPDANVPPLDKCLKKITEPDPDVIDYQAPLIKKLGNVFELKENPKKKKARTQDRLTYTGADDQAKLLEEPSAEKVGVSEALYPPKKKAGEIGDHNPVQDFEAMLTQRSSSTWVQTAIEEMQKYITALIQDSCDRDNHQKALECLVALRKACIIEQEPNEYNGFVTKLCQKFRPAGDKIFLQLLSSKKASLISKEEAPDSDVTEEMARNFCLKPEPSSQ	–	–	–	–	binds
